Experimental data reported in article PMC7819943, “Rice protein-binding microarrays: a tool to detect cis-acting elements near promoter regions in rice”.
The list shows a part of the results.

These sequences were tested against T1, OsSMF1 (Oryza sativa, UniProt Q6ZLB0 1-436) (assay: protein-binding microarray (RPBM); PBS, 2% BSA, 51.3 ng/ul salmon testes DNA, 50 uM zinc acetate, 200 nM TF, 25 C, 1 h; high values mean tight binding). Details: protein: recombinant; tags: N-terminal polyhistidine and DsRed monomer fusion (pET32a); chain copies: 2; label: CyDye5-dUTP incorporated in the synthesized complementary strand; 3' TTTTT single-stranded linker to array surface; dsDNA, one strand shown.
T1 sequence: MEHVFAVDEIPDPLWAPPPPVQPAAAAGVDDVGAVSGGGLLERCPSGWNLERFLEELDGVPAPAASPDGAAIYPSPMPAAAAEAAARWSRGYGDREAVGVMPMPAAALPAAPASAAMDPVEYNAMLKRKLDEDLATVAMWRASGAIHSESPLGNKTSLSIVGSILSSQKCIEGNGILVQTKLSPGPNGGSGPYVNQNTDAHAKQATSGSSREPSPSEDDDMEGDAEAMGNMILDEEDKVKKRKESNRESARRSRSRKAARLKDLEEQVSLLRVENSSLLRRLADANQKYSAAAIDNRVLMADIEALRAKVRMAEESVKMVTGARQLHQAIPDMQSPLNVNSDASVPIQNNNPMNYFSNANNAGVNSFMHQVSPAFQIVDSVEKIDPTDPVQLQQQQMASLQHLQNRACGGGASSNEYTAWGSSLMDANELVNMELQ
Procedure, shortened: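 Transcription factors were made in E. coli BL21-CodonPlus as N-terminal fusions to a polyhistidine tag and DsRed, then purified on Ni–NTA. After primer extension with Cy5-dUTP and blocking with 2% BSA, a custom Agilent array was exposed for 1 h at 25 °C to 200 nM protein in PBS, 2% BSA, salmon testes DNA and 50 µM zinc acetate. Washed arrays were scanned on an Axon 4000B, and the binding signal is per-feature fluorescence intensity in arbitrary units.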

Row | Sequence | binding signal
1 | TGTTGAGGTCGAGGGCTATGACACGGTCGTCGAGGTCGAGCGGAGTCACCTAGTGCAG | 3740 fluorescence intensity (a.u.)
2 | GACACATGAGGGCCCACATGTCATACATTGTGAATGACACCGGAGTCACCTAGTGCAG | 3900 fluorescence intensity (a.u.)
3 | TATATATGTGCCATGTGTGCGTCTGCTCGATTCGATTTGGCGGAGTCACCTAGTGCAG | 4110 fluorescence intensity (a.u.)
4 | TGCCATGAAATATTAAACGAGGACATGTTCGGCTATGCCCCGGAGTCACCTAGTGCAG | 16800 fluorescence intensity (a.u.)
5 | CGGTTGTTCCGTTACGTATGGGACACAACGTCAATAAGCTCGGAGTCACCTAGTGCAG | 3550 fluorescence intensity (a.u.)
6 | ACCGACAGCTGACGTGCCAGGGTTCAAGTCTTCGTTTTGACGGAGTCACCTAGTGCAG | 5360 fluorescence intensity (a.u.)
7 | AAATAGCCAAGCCATATCATCTCATCCATATCATAATCGGCGGAGTCACCTAGTGCAG | 3200 fluorescence intensity (a.u.)
8 | CGCGCGCGCGTGACACGGCCACGCGCACCCAGCCGTCGCTCGGAGTCACCTAGTGCAG | 5680 fluorescence intensity (a.u.)
9 | CCTTGGTTTCCGTGTCATGTTTGACCATTCGTCTTATTTGCGGAGTCACCTAGTGCAG | 4910 fluorescence intensity (a.u.)
10 | ATCAAAAGGTAAGATTTTATGTTATAAGATCATGTTTAGTCGGAGTCACCTAGTGCAG | 12500 fluorescence intensity (a.u.)
11 | AAAGTGTAAGTGTGGTAGATCAATGATCAATAATGTGATTCGGAGTCACCTAGTGCAG | 35000 fluorescence intensity (a.u.)
12 | CAGGTGTGCAGTGCAGCAAATTATTCCGCGTTGGCACGGCCGGAGTCACCTAGTGCAG | 3720 fluorescence intensity (a.u.)
13 | TGGAGTGAAAATAAAAGAAGCCAACTCGATCAATCGGCTACGGAGTCACCTAGTGCAG | 29500 fluorescence intensity (a.u.)
14 | ATCGCGCGCGCGACGCGAGCTCCACGACGATGTCGCCGTACGGAGTCACCTAGTGCAG | 3770 fluorescence intensity (a.u.)
15 | CCGTGGCTGGTGGGGCGGGTGAGTCACGCCCTCGGCGCTGCGGAGTCACCTAGTGCAG | 13000 fluorescence intensity (a.u.)
16 | AAGTCAACAACGCCACGTAGGCGCCACGTGAGCCAAAATCCGGAGTCACCTAGTGCAG | 22400 fluorescence intensity (a.u.)
17 | CTGCTTGTGCGTGTCAATGACTTCCACCAGTGGAATTTCCCGGAGTCACCTAGTGCAG | 4390 fluorescence intensity (a.u.)
18 | TCTACGTAGCTGGGCCATGATGACGTAAGGCCTTCCTGCCCGGAGTCACCTAGTGCAG | 13900 fluorescence intensity (a.u.)
19 | GGACCCACAATATTATTTTGTATGTGAATGTCAGATGGGTCGGAGTCACCTAGTGCAG | 3430 fluorescence intensity (a.u.)
20 | AAATTGTAATCGACTGAGAGATGGTTCGCACGCGTGGAGTCGGAGTCACCTAGTGCAG | 3400 fluorescence intensity (a.u.)
21 | CTCCGATGGAAGCCACGTCCTGTCCAATTCCCAAACTAACCGGAGTCACCTAGTGCAG | 4220 fluorescence intensity (a.u.)

No new results follow: an excerpt of the list.
Row | Sequence | binding signal
8 | CGCGCGCGCGTGACACGGCCACGCGCACCCAGCCGTCGCTCGGAGTCACCTAGTGCAG | 5680 fluorescence intensity (a.u.)
9 | CCTTGGTTTCCGTGTCATGTTTGACCATTCGTCTTATTTGCGGAGTCACCTAGTGCAG | 4910 fluorescence intensity (a.u.)

Later entries.

Row | Sequence | binding signal
22 | CTAATTCGGCACCGGATGGCACGTCGGCGGTGAGCCAGACCGGAGTCACCTAGTGCAG | 5380 fluorescence intensity (a.u.)
23 | CTCCTCGCCACCGTTCTCCGTCCATCCACCGAGTCACCGACGGAGTCACCTAGTGCAG | 3310 fluorescence intensity (a.u.)
24 | TGACACGGACGCACGTCACAACGTCGTCACGTCGCCGCGCCGGAGTCACCTAGTGCAG | 9270 fluorescence intensity (a.u.)
25 | CTGCCCTCTCGGCCAAGATGACGTAGCCATAACGCTTGGACGGAGTCACCTAGTGCAG | 6080 fluorescence intensity (a.u.)
26 | CGTATGCGACGGCATACTGATTCCACTGTGTCATGTGCAACGGAGTCACCTAGTGCAG | 3320 fluorescence intensity (a.u.)
27 | GACCTGTGCTTACAACATGTAAAGCCGCGGTGGTCTAGGACGGAGTCACCTAGTGCAG | 22500 fluorescence intensity (a.u.)
28 | TAGCATTACTCATATTCATACAAAATGTTATTACTCCTTCCGGAGTCACCTAGTGCAG | 3390 fluorescence intensity (a.u.)
29 | CATTTCATTTCCTCCCAAGAGTCAAGCTAGCCCTTCTTGCCGGAGTCACCTAGTGCAG | 3550 fluorescence intensity (a.u.)
30 | GATAGCAGTTCAAGTTTAACTAAAGCTTCCCTAGGATTATCGGAGTCACCTAGTGCAG | 15300 fluorescence intensity (a.u.)
31 | CATCTTCATCGGGAGAAACGCCACCTAAAATGTTACTCCCCGGAGTCACCTAGTGCAG | 3350 fluorescence intensity (a.u.)
32 | TTTCAAGTCTCCTGCTGACATGGCACACTAATTAGGGAGACGGAGTCACCTAGTGCAG | 7970 fluorescence intensity (a.u.)
33 | ACCACGTAAAATATCCAAACTGCCGTGTCCATCGTTTTCCCGGAGTCACCTAGTGCAG | 3160 fluorescence intensity (a.u.)
34 | TCTTCGTTGCCCCTTGTTTTCACCATGTCACTGTTGAACACGGAGTCACCTAGTGCAG | 4060 fluorescence intensity (a.u.)
35 | TATGGAATCTCCATCAACCACGTGCATCAACTCTAGCCTTCGGAGTCACCTAGTGCAG | 4110 fluorescence intensity (a.u.)
36 | GCGTGAGCTTAGCAAAGAAATATCTCGTGGCACCTGTCACCGGAGTCACCTAGTGCAG | 3930 fluorescence intensity (a.u.)
37 | TAAGATGGAGGAGGCGAGGAGAGTTGCGTAGGATGGAGTGCGGAGTCACCTAGTGCAG | 3880 fluorescence intensity (a.u.)
38 | AATGCCTCAACAACTAGGGCAGCGTTCGTTCCAGTGAGTTCGGAGTCACCTAGTGCAG | 3180 fluorescence intensity (a.u.)
39 | TTTCTTCACTACTTGCACGATGATGACGATGTGGAGCTAACGGAGTCACCTAGTGCAG | 3540 fluorescence intensity (a.u.)
40 | CGAGGCGGGGTGCACCTTCATGGTCAGTGGCCCGTGGTTCCGGAGTCACCTAGTGCAG | 4270 fluorescence intensity (a.u.)
41 | GAGGCGGCGGATCTGACGTCTAACCTAATTGTTGTCCCAGCGGAGTCACCTAGTGCAG | 4090 fluorescence intensity (a.u.)
42 | CTTTGATGGCTGAGTTGGCATCTTCGCAGGATGCGCATGACGGAGTCACCTAGTGCAG | 7300 fluorescence intensity (a.u.)
